Reference: US20150299708, “CD133 APTAMERS FOR DETECTION OF CANCER STEM CELLS” (Deakin University, published 2015)
Results from cells or extracts need not show a direct contact. Protein sequences can lack the tags named with them.

Target: T1, CD133 (prominin-1) (Homo sapiens) (UniProt O43490)
T1 sequence (looked up, limits assumed): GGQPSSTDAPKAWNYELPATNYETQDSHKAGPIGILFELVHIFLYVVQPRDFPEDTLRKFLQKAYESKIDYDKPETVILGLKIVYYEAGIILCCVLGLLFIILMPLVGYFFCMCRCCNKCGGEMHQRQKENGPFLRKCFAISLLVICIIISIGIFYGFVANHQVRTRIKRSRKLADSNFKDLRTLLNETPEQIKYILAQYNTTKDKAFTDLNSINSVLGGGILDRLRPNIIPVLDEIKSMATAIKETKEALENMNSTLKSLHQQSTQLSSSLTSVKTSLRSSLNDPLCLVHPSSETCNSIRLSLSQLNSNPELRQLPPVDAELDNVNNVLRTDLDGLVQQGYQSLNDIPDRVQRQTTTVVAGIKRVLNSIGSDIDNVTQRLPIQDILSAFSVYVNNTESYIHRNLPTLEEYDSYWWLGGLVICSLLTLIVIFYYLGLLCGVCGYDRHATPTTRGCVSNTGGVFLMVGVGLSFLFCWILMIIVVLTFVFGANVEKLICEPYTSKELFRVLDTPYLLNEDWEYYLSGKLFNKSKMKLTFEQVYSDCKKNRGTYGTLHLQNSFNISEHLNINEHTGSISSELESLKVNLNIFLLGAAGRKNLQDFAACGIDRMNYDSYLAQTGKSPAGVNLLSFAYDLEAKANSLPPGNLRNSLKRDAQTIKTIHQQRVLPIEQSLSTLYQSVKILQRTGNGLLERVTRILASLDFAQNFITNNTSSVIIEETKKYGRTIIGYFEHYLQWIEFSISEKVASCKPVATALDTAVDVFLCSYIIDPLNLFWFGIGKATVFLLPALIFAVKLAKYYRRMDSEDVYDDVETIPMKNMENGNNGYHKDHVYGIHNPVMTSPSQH
Experiment: flow cytometry
Details: 2'-F pyrimidines, protein on the cell surface, label: 3'-FITC

[1] = truncated clone, variant of CD133-1

Sequence	binding result [1]	further results
GCUCAACCCACCCUCCUACAUAGGGAGGAACGAGU [CD133-1-2]	binds	–
CCACCCUCCUACAUAGGGUGG [CD133-1-2-1]	binds	–
GAGACAAGAAUAAACGCUCAACCCACCCUCCUACAUAGGGAGGAACGAGUUACUAUAG [CD133-1-1]	binds	–
GAGACAAGAAUAAACGCUCAACCCACCCUCCUACAUAGGGAGGAACGAGUUACUAUAGAGCUUCGACAGGAGGCUCACAAC [CD133-1]	–	binding result (transfected vs non-transfected HEK293T, Kd not given, on ice, DPBS + MgCl2): binds
GAGACAAGAAUAAACGCUCAAGGAAAGCGCUUAUUGUUUGCUAUGUUAGAACGUAUACUAUUUCGACAGGAGGCUCACAACAGGC [CD133-2]	–	binding result (transfected vs non-transfected HEK293T, truncation to CD133-2-1 reduced Kd, on ice): binds
